Results as given in doi:10.1101/2025.04.02.646914.
Changes are numbered by the printed parent chain. For at least one entry, the source does not settle the construct or the ends of the probe. For some of these results: A weaker result is weaker than the reference pair of the same experiment. For some of these results: At least one verdict rests on a figure or table, not on a statement of the authors. Tags and fusion partners may be left off the protein sequences shown.

Key:
Assay in all cases: EMSA
Conditions in all cases: 5 mM Mg2+, 1 g/L yeast tRNA
[1] = molecular target: T1, SRSF2 RRM S26L (human) (UniProt Q01130)
T1 sequence (looked up, limits assumed): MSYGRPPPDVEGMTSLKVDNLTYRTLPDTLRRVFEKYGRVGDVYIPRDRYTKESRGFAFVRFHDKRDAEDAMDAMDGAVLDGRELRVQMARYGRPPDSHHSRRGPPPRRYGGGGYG

[2] = molecular target: T2, SRSF2 RRM K36N (human) (UniProt Q01130)
T2 sequence (looked up, limits assumed): T1 sequence (looked up, limits assumed) with L26S, K36N

[3] = molecular target: T3, SRSF2 RRM WT (human) (UniProt Q01130)
T3 sequence (looked up, limits assumed): T1 sequence (looked up, limits assumed) with L26S

[4] = molecular target: T4, SRSF2 RRM P95H (human) (UniProt Q01130)
T4 sequence (looked up, limits assumed): T1 sequence (looked up, limits assumed) with L26S, P95H

Sequence: UUAACAAUUGGAGUC [5' fluoro MELK]
- binding result [1]: binds more weakly
- binding result [2]: binds more weakly
- binding result [3]: binds
- binding result [4]: binds more weakly
